Results reported in PubChem BioAssay AID292 (DTP/NCI, 2004).
The list shows only some results of the screen, not a fair sample: its compounds were picked by chemical class. Other doses and runs of a compound may be missing. T/C gives the treated animals as a percentage of the vehicle group. Some doses have a count of surviving animals in place of a T/C: the source files T/C as zero there, which appears to mark a toxic dose or a test without result, not a measured value. Some doses without a T/C left all or most animals alive at the check, yet need not have been tolerated: survival well below the control is almost never listed, so the zero probably covers shortened survival too. Counts of survivors are from the toxicity check (mostly the fifth day) where no day follows; animals may have died later. Schedule codes are those of the source, taken here to give the interval after Q, in days (D) or hours (H), and the number of doses after X. Where survival is the endpoint, this PubChem deposit counts one and a half times the control or more as active, and values a quarter to a half above the control carry no call in these data; other NCI protocols may use other cut-offs. Some T/C values are followed by the survivors on the day toxicity was checked, most often the fifth; where neither a count nor a note follows, no animal had died by that day.

Tested on: B6C3F1 mice, ip Sarcoma M5076, median survival T/C
Experiment: NCI In Vivo Anticancer Drug Screen. Data for tumor model Sarcoma M5076 (intraperitoneal) in B6C3F1 mice
Settings: T/C endpoint: median survival time, schedule: Q04DX004 (ip), higher T/C = longer survival
Description: The antitumor activity of compounds was measured in mice bearing transplantable tumors. Survival or tumor size were measured and the results are expressed as the measurement made in the treated group (T) divided by the measurement made in the vehicle treated control group (C). The tumor model used in this assay is Sarcoma M5076 (intraperitoneal) in B6C3F1 mice

[1] = dose: 25.0 mg/kg/injection, vehicle: saline with Tween-80
[2] = dose: 50.0 mg/kg/injection, vehicle: saline with Tween-80
[3] = dose: 100.0 mg/kg/injection, vehicle: saline with Tween-80
[4] = dose: 200.0 mg/kg/injection, vehicle: saline with Tween-80
[5] = dose: 400.0 mg/kg/injection, vehicle: saline with Tween-80

SMILES	T/C [1]	T/C [2]	T/C [3]	T/C [4]	survivor count [5]	T/C [5]	T/C (dose: 75.0 mg/kg/injection, vehicle: Klucel (hydroxypropylcellulose) (HPC))	T/C (dose: 150.0 mg/kg/injection, vehicle: Klucel (hydroxypropylcellulose) (HPC))	T/C (dose: 300.0 mg/kg/injection, vehicle: Klucel (hydroxypropylcellulose) (HPC))	T/C (dose: 600.0 mg/kg/injection, vehicle: Klucel (hydroxypropylcellulose) (HPC))	T/C (dose: 1200.0 mg/kg/injection, vehicle: Klucel (hydroxypropylcellulose) (HPC))
NCCC(N)CSP(=O)(O)O (stereo not given)	94 % of control	97 % of control	94 % of control	92 % of control	10 of 10 on day 14						
O=c1oc(NCCCl)nc2ccccc12	106 % of control	111 % of control	107 % of control [9 of 10 alive on day 14]	104 % of control		102 % of control					
ClP1(Cl)=NP(Cl)(Cl)=NP(Cl)(Cl)=NP(Cl)(Cl)=N1							100 % of control	101 % of control [9 of 10 alive on day 14]	97 % of control	100 % of control	93 % of control
